Assay results taken from patent US20240400677A1.

Molecular target: cynomolgus monkey SIRPβ1-His monomer protein (cynomolgus monkey)
Test: BLI

B1: Antibody 9 (scFv, V domains shown)
VH: QVQLVQSGAEVKKPGASVKVSCKASGYSFSDYYMHWVRQAPGQGLEWMGWMSPNSGNTGYAQKFQGRVTMTRDTSTSTVYMELSSLRSEDTAVYYCARQREEYGHYYYGMDVWGQGTMVTVSS
VL: EIVMTQSPATLSVSPGERATLSCRASQSLGSTYLAWYQQKPGQAPRLLIYGASTRATGIPARFSGSGSGTEFTLTISSLQSEDFAVYYCQQYYSSPPTFGQGTKVEIK
B1 was tested, and the binding was “no binding (tested: <0.02 nm at 115 s)”.

B2: Antibody 10 (scFv, V domains shown)
VH: QVQLVQSGAEVKKPGASVKVSCKASGGTFSNYDISWVRQAPGQGLEWMGMIDPSGGSTSYAQKFQGRVTMTRDTSTSTVYMELSSLRSEDTAVYYCARPYSSGWYYFDYWGQGTLVTVSS
VL: DIQMTQSPSSLSASVGDRVTITCQASQDIHNYLNWYQQKPGKAPKLLIYDASNLETGVPSRFSGSGSGTDFTLTISSLQPEDFATYYCQQSYNTPPTFGQGTRLEIK
B2 was tested, and the binding was “no binding (tested: <0.02 nm at 115 s)”.

B3: Antibody 12 (scFv, V domains shown)
VH: QVQLVQSGAEVKKPGASVKVSCKASGGTFGSYGINWVRQAPGQGLEWMGWISAYNGNTNYAQKLQGRVTMTRDTSTSTVYMELSSLRSEDTAVYYCARDGIDYGGNSGYDYWGQGTLVTVSS
VL: DIQMTQSPSSLSASVGDRVTITCRASQNIRNYLNWYQQKPGKAPKLLIYAASSLQGGVPSRFSGSGSGTDFTLTISSLQPEDFATYYCQQSYNGPYTFGQGTKVEIK
For B3, the binding was “no binding (tested: <0.02 nm at 115 s)”.

B4: Antibody 14 (scFv, V domains shown)
VH: QVQLVQSGAEVKKPGASVKVSCKASGYTFTSYYMHWVRQAPGQGLEWMGWVDPNNGDTGYAQKFQGRVTMTRDTSTSTVYMELSSLRSEDTAVYYCARDNWGSLDVWGKGTTVTVSS
VL: DIVMTQSPLSLPVTPGEPASISCRSSQSLLHSNGYNYLDWYLQKPGQSPQLLIYAASTLQSGVPDRFSGSGSGTDFTLKISRVEAEDVGVYYCMQGLQTLYSFGQGTKLEIK
B4 was tested, and the binding was “no binding (tested: <0.02 nm at 115 s)”.

B5: Antibody 15 (scFv, V domains shown)
VH: QVQLVQSGAEVKKPGASVKVSCKASGYSFTSYGISWVRQAPGQGLEWMGWISPYNGNTNYAQKLQGRVTMTRDTSTSTVYMELSSLRSEDTAVYYCAREAYGDYGDYFDYWGQGTLVTVSS
VL: DIQMTQSPSSLSASVGDRVTITCRASQGVGDRSAWYQQKPGKAPKLLIYDASNLETGVPSRFSGSGSGTDFTLTISSLQPEDFATYYCQQADTFPYTFGQGTKLEIK
For B5, the binding was “no binding (tested: <0.02 nm at 115 s)”.

B6: Antibody 16 (scFv, V domains shown)
VH: QVQLVQSGAEVKKPGASVKVSCKASGYTFTSYYMHWVRQAPGQGLEWMGWINPNSGNAGFAQKFQGRVTMTRDTSTSTVYMELSSLRSEDTAVYYCARGPVYSYGPFDYWGQGTLVTVSS
VL: DIQMTQSPSSLSASVGDRVTITCRASQGISTYLAWYQQKPGKAPKLLIYAASTLQSGVPSRFSGSGSGTDFTLTISSLQPEDFATYYCQQSHSAPITFGQGTKVEIK
For B6, the binding was “no binding (tested: <0.02 nm at 115 s)”.

B7: Antibody 17 (scFv, V domains shown)
VH: QVQLVQSGAEVKKPGASVKVSCKASGYTFTRNYVHWVRQAPGQGLEWMGRINPNSGGTNTAQKFQGRVTMTRDTSTSTVYMELSSLRSEDTAVYYCARLGDVAVAASFDYWGQGTLVTVSS
VL: DIQMTQSPSSLSASVGDRVTITCRASQSISSYLNWYQQKPGKAPKLLIYDASSLESGVPSRFSGSGSGTDFTLTISSLQPEDFATYYCQQANSFPLTFGPGTKVDIK
In the case of B7, the binding is reported as “no binding (tested: <0.02 nm at 115 s)”.

B8: Antibody 18 (scFv, V domains shown)
VH: QVQLVQSGAEVKKPGASVKVSCKASGYTFTGYYMHWVRQAPGQGLEWMGWMNPNSGNTGYAQKFQGRVTMTRDTSTSTVYMELSSLRSEDTAVYYCARGSGYDAGVFDYWGQGTLVTVSS
VL: DIQMTQSPSSLSASVGDRVTITCRASQGIGNDLAWYQQKPGKAPKLLIYDAKDLHPGVPSRFSGSGSGTDFTLTISSLQPEDFATYYCQQSYSFPRTFGQGTRLEIK
With B8 the binding was “no binding (tested: <0.02 nm at 115 s)”.

B9: Antibody 19 (scFv, V domains shown)
VH: QVQLVQSGAEVKKPGASVKVSCKASGYTFTAYYMHWVRQAPGQGLEWMGIINPSGGSTSYAQKFQGRVTMTRDTSTSTVYMELSSLRSEDTAVYYCARDSGWYAPGYYYGMDVWGQGTTVTVSS
VL: DIQMTQSPSSLSASVGDRVTITCRASESISHWLAWYQQKPGKAPKLLIYGASTLQSGVPSRFSGSGSGTDFTLTISSLQPEDFATYYCQQSYTPPLTFGGGTKVEIK
For B9, the binding was “no binding (tested: <0.02 nm at 115 s)”.

B10: Antibody 21 (scFv, V domains shown)
VH: EVQLLESGGGLVQPGGSLRLSCAASGFTLGSYWMHWVRQAPGKGLEWVSLISWDGGSTYYADSVKGRFTISRDNSKNTLYLQMNSLRAEDTAVYYCAKGPWVGYSGYDLNYYYYGMDVWGQGTTVTVSS
VL: DIQMTQSPSSLSASVGDRVTITCRASQDIRRALAWYQQKPGKAPKLLIYAASSLQSGVPSRFSGSGSGTDFTLTISSLQPEDFATYYCLQHNSYPPTFGQGTKLEIK
For B10, the binding was “no binding (tested: <0.02 nm at 115 s)”.

B11: Antibody 23 (scFv, V domains shown)
VH: QVQLVQSGAEVKKPGASVKVSCKASGGTFSNYDINWVRQAPGQGLEWMGWISAYNGNTNYAQKLQGRVTMTRDTSTSTVYMELSSLRSEDTAVYYCAAEAYGDYSLDPWGQGTLVTVSS
VL: DIQMTQSPSSLSASVGDRVTITCQASQGISSYLNWYQQKPGKAPKLLIYAASSLQNGVPSRFSGSGSGTDFTLTISSLQPEDFATYYCQQSYSTPITFGQGTRLEIK
B11 was tested, and the binding was “no binding (tested: <0.02 nm at 115 s)”.

B12: Antibody 24 (scFv, V domains shown)
VH: QVQLVQSGAEVKKPGASVKVSCKASGYTFTGYYMHWVRQAPGQGLEWMGIINPSGGSTNYAQKFQGRVTMTRDTSTSTVYMELSSLRSEDTAVYYCARGPIGYGMDVWGQGTLVTVSS
VL: DIQMTQSPSSLSASVGDRVTITCRASQGIGNDLGWYQQKPGKAPKLLIYAASNLETGVPSRFSGSGSGTDFTLTISSLQPEDFATYYCLQHHSYPFTFGQGTKLEIK
With B12 the binding was “no binding (tested: <0.02 nm at 115 s)”.

B13: Antibody 25 (scFv, V domains shown)
VH: EVQLLESGGGLVQPGGSLRLSCAASGFTVGSWYMSWVRQAPGKGLEWVAHVSDDGSNEFYADSVKGRFTISRDNSKNTLYLQMNSLRAEDTAVYYCARSPGYCSSTSCYRYYGMDVWGQGTTVTVSS
VL: DIQMTQSPSSLSASVGDRVTITCRTSQSIGTYLNWYQQKPGKAPKLLIYDASNLPTGVPSRFSGSGSGTDFTLTISSLQPEDFATYYCQNYNSALFGPGTKVDIK
B13 was tested, and the binding was “no binding (tested: <0.02 nm at 115 s)”.

B14: Antibody 26 (scFv, V domains shown)
VH: QVQLVQSGAEVKKPGASVKVSCKASGYTFTSYYMHWVRQAPGQGLEWMGRINPNSGGTKYAQKFQGRVTMTRDTSTSTVYMELSSLRSEDTAVYYCARLGSAYFDLWGRGTLVTVSS
VL: DIQMTQSPSSLSASVGDRVTITCRASQSVDTWLAWYQQKPGKAPKLLIYEASTLESGVPSRFSGSGSGTDFTLTISSLQPEDFATYYCQQANSFPITFGQGTRLEIK
In the case of B14, the binding is reported as “no binding (tested: <0.02 nm at 115 s)”.

B15: Antibody 28 (scFv, V domains shown)
VH: QVQLVQSGAEVKKPGASVKVSCKASGYTFTSYNIHWVRQAPGQGLEWMGWISAYNGNTNYAQKLQGRVTMTRDTSTSTVYMELSSLRSEDTAVYYCALDGGQLGVAFDIWGQGTMVTVSS
VL: DIQMTQSPSSLSASVGDRVTITCRASQGISNWLAWYQQKPGKAPKLLIYDASNLDAGVPSRFSGSGSGTDFTLTISSLQPEDFATYYCQQANSLPLTFGGGTKVEIK
B15 was tested, and the binding was “no binding (tested: <0.02 nm at 115 s)”.

No constants are given. Whether binding was seen depends on the method and setting.
